From PubChem BioAssay AID504467 (National Center for Advancing Translational Sciences (NCATS), 2011)
The campaign covered roughly 330,000 compounds. About 7,700 (2.3%) were called active. This list was built around the results that the source calls inconclusive (neither active nor inactive); the mix of calls is not that of the screen. The call rests on the fitted dose curve; in most records, active means well fitted inhibition curve with a large enough effect; inconclusive means small, poorly fitted or top-dose-only effect, or effect the other way; inactive means flat fitted curve, though single readings scatter. Where the call is inconclusive, the potency comes from a doubtful curve fit.

assay: qHTS screen for small molecules that inhibit ELG1-dependent DNA repair in human embryonic kidney (HEK293T) cells expressing luciferase-tagged ELG1; conditions: HEK293T ELG1-luciferase reporter, luminescence, 16 h, DNA damage induced by 5-fluorouridine; series mostly up to 46.1 µM; further: nearly all actives have a fitted effect of over 55% in size
Outline: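 Cells (2,000 per well) received 5-fluorouridine plus test compound or DMSO and were incubated 16 hr at 37 °C, 5% CO2. Luciferase activity was read by luminescence 30 min after ONE-Glo addition; signal suppression marked inhibition of damage-induced ELG1 function.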
Potency means the concentration at half of the fitted maximal effect.

Q: With CC1CC(C)CN(C(=S)NC2CCCCC2)C1 (centres undefined) as the compound, how does the Potency read?
A: inactive

Q: With CC(=O)C1=C(O)C(=O)N(c2cc(C(C)(C)C)on2)C1c1ccc(C(C)C)cc1 (centres undefined) as the compound, how does the Potency read?
A: inactive

Q: For CCc1ccc(-c2cc(C)no2)cc1S(=O)(=O)NC(C)Cc1ccco1 (centres undefined), which Potency is on record?
A: inconclusive: 16.4 µM [inhibitor, single point]

Q: Which Potency does the source give for CCOc1nc2c(c(-c3cccs3)c1C#N)Cc1ccccc1-2 here?
A: inactive

Q: With CC(C)C(=O)N1CCN(c2ccccc2NC(=O)c2cccc3ccccc23)CC1 as the compound, how does the Potency read?
A: inconclusive: 20.6 µM [inhibitor, single point]

Q: With COc1ccc(CC(=O)Nc2ccc(-c3nnc(-c4ccc(C)cc4)o3)cc2)cc1 as the compound, how does the Potency read?
A: inconclusive: 14.6 µM [activator, single point]

Q: Which Potency does the source give for O=C(c1cc2nc(-c3ccccc3)cc(C(F)(F)F)n2n1)N1CCN2CCCC2C1 (centres undefined) here?
A: inconclusive: 20.6 µM [inhibitor, partial curve, poor fit]

Q: For COc1ccc(CCNC(=O)c2cccs2)cc1OC, which Potency is on record?
A: inactive

Q: Which Potency does the source give for CC(C)c1ccc(NC(=O)CSc2nc(=O)n(CCN3CCOCC3)c3c2CCC3)cc1 here?
A: inactive

Q: With Cc1cc(C(=O)OCC(=O)N2c3ccccc3CC2C)c(C)o1 (centres undefined) as the compound, how does the Potency read?
A: inconclusive: 14.6 µM [activator, partial curve, poor fit]

Q: With O=C(COC(=O)c1c2c(nc3ccccc13)CCCCC2)c1ccc(Cl)s1 as the compound, how does the Potency read?
A: inconclusive: 25.9 µM [inhibitor, single point]

Q: With Cc1ccc2cc3c(NC(=O)c4ccco4)nn(C)c3nc2c1 as the compound, how does the Potency read?
A: inactive

Q: With CCOc1ccccc1OCC(=O)OCc1csc(CC(=O)Nc2ccccc2C)n1 as the compound, how does the Potency read?
A: inactive

Q: With Cc1nc(-c2cn[nH]c2)c2cc(C)oc2n1 as the compound, how does the Potency read?
A: inactive

Q: With O=C(Nc1nnc(-c2ccccn2)o1)c1cccc(Cl)c1 as the compound, how does the Potency read?
A: inconclusive: 29.1 µM [inhibitor, single point]

Q: Which Potency does the source give for COCCN(CCOC)S(=O)(=O)c1ccc(C(=O)Nc2nc(C)c(C(C)=O)s2)cc1 here?
A: inconclusive: 29.1 µM [activator, single point]

Q: With CN(C)c1ccc(C(=S)Nc2ccccc2)cc1 as the compound, how does the Potency read?
A: inconclusive: 2.59 µM [activator, partial curve]

Q: With CCc1cc(C(=O)c2ccc(OC)cc2)c(NC(=O)CN2CCCC2)s1 as the compound, how does the Potency read?
A: inconclusive: 13 µM [inhibitor, single point]

Q: With CCCC(=O)Nc1ccc(NC(=O)c2ccccc2Cl)nc1 as the compound, how does the Potency read?
A: inconclusive: 9.2 µM [activator, partial curve]

Q: For CN(C)C(CNC(=O)c1ccc(Cl)c(S(=O)(=O)N2CCCCCC2)c1)c1ccccc1 (centres undefined), which Potency is on record?
A: inconclusive: 3.26 µM [inhibitor, partial curve, poor fit]

Q: For c1ccc(CN2OCC3Cn4c(nc5ccccc54)C32)cc1 (centres undefined), which Potency is on record?
A: inconclusive: 18.3 µM [activator, partial curve, poor fit]

Q: For COc1ccc(CCNC(=O)c2nonc2N)cc1, which Potency is on record?
A: inconclusive: 20.6 µM [activator, partial curve]

Q: Which Potency does the source give for COC(=O)c1cccc(C(=O)N2CCC(CO)(CCc3ccccc3)CC2)c1 here?
A: inconclusive: 18.3 µM [activator, partial curve, poor fit]

Q: For COc1ccc(N2C(=O)/C(=C/c3ccc([N+](=O)[O-])cc3)N=C2C)c(OC)c1, which Potency is on record?
A: inconclusive: 14.6 µM [inhibitor, partial curve]

Q: Which Potency does the source give for CCN(CC)c1ccc(/C=c2\sc3nc4ccccc4n3c2=O)c(O)c1 here?
A: inconclusive: 29.1 µM [inhibitor, single point]

Q: For Fc1cccc(Nc2nc(N3CCOCC3)nc(N3CCOCC3)n2)c1, which Potency is on record?
A: inconclusive: 14.6 µM [inhibitor, partial curve]

Q: Which Potency does the source give for COc1cc(N/N=C(\C)c2ccc(N)cc2)nc(-c2ccccc2)n1 here?
A: inconclusive: 29.1 µM [inhibitor, single point]

Q: With C=CCc1c(C)[nH]c2ccc(C)cc2c1=O as the compound, how does the Potency read?
A: inconclusive: 8.91 µM [activator, partial curve]

Q: Which Potency does the source give for CCCn1nc(NC(=O)C2CCCO2)c2cc3cc(C)ccc3nc21 (centres undefined) here?
A: inconclusive: 3.66 µM [activator, full curve, poor fit]

Q: Which Potency does the source give for COC(=O)c1cc2ccsc2n1Cc1cc(=O)n2ccccc2n1 here?
A: inconclusive: 18.4 µM [activator, partial curve]

Q: With CCOc1cc(C(=O)N(C)Cc2cc3cc(OC)ccc3[nH]c2=O)cc(OCC)c1OCC as the compound, how does the Potency read?
A: inconclusive: 20.6 µM [inhibitor, single point]

Q: With COc1ccc(NC(=O)CN(C)C(=O)c2ccc3[nH]c4c(c3c2)CC(C)CC4)cc1 (centres undefined) as the compound, how does the Potency read?
A: inconclusive: 29.1 µM [inhibitor, single point]

Q: For Cc1ccc2nc(SCc3cn4cccnc4n3)[nH]c2c1, which Potency is on record?
A: inconclusive: 20.6 µM [activator, single point]

Q: Which Potency does the source give for COCCC(=O)N(Cc1ccc2c(c1)OCO2)C(C(=O)NC1CCCCC1)c1ccncc1 (centres undefined) here?
A: inactive

Q: With Cc1ccc2c(c1)C(c1ccccc1)N(C(=O)c1ccc(Br)cc1)CC(=O)N2 (centres undefined) as the compound, how does the Potency read?
A: inconclusive: 29.1 µM [inhibitor, single point]

Q: Which Potency does the source give for CSc1cccc(NC(=O)C2CCCN2S(=O)(=O)c2ccc(Br)s2)c1 (centres undefined) here?
A: inconclusive: 29.1 µM [inhibitor, single point]

Q: With Cc1nnc(C)n1/N=C/c1ccccc1 as the compound, how does the Potency read?
A: inactive

Q: For COc1cc2[nH]c(=O)n(CCCC(=O)NC3CCCCC3)c(=O)c2cc1OC, which Potency is on record?
A: inactive

Q: With Cc1ccc(SCc2c(C(=O)N/N=C/c3cccnc3)nnn2-c2nonc2N)cc1 as the compound, how does the Potency read?
A: inconclusive: 18.3 µM [inhibitor, partial curve]

Q: With Cc1[nH][nH]c(=O)c1C=NCc1ccc(Cl)cc1 as the compound, how does the Potency read?
A: inactive

Q: With CCOC(=O)C1CCCN(C(=O)c2ccc3c(c2)N(C)C(=O)/C(=C/c2ccccc2Cl)S3)C1 (centres undefined) as the compound, how does the Potency read?
A: active: 14.6 µM

Q: With CC(=O)c1c(C)[nH]c(C(=O)COc2cc(C)ccc2C(C)C)c1C as the compound, how does the Potency read?
A: inconclusive: 0.92 µM [inhibitor, partial curve, poor fit]

Q: With CCOC(=O)C1(Cc2cccc(OC)c2)CCN(C/C=C/c2ccc(OC)cc2)CC1 as the compound, how does the Potency read?
A: inactive

Q: With Cc1cc(N2C3CCC2CC(O)(c2ccc(F)cc2)C3)nc(-c2ccccc2)n1 (centres undefined) as the compound, how does the Potency read?
A: inconclusive: 8.2 µM [inhibitor, single point]
